These are yes or no findings as the source states them, for the method shown. Some binding calls cover weakened binding; strength is not graded here.
Legend:
[1] = target: hKLB-ECD-HIS protein (human) (UniProt Q86Z14); assay: KLB-ECD captured on immobilised BsAb10, then FGF19 at 0.2, 0.8 or 2 µM (traces not keyed to the concentrations); SPR per legend paragraph 67, bio-layer interferometry per paragraph 416
[2] = target: hKLB-ECD-HIS protein (human) (UniProt Q86Z14); assay: FGF protein on KLB-ECD held by BsAb10 (FIG. 14A)

Protein sequences, listed by entry. Tags and fused reporters are not part of them. Lines headed by an entry give the natural chain unless they say otherwise; changes in a name come on top. Residues count along the entry.
UniProt Q86Z14: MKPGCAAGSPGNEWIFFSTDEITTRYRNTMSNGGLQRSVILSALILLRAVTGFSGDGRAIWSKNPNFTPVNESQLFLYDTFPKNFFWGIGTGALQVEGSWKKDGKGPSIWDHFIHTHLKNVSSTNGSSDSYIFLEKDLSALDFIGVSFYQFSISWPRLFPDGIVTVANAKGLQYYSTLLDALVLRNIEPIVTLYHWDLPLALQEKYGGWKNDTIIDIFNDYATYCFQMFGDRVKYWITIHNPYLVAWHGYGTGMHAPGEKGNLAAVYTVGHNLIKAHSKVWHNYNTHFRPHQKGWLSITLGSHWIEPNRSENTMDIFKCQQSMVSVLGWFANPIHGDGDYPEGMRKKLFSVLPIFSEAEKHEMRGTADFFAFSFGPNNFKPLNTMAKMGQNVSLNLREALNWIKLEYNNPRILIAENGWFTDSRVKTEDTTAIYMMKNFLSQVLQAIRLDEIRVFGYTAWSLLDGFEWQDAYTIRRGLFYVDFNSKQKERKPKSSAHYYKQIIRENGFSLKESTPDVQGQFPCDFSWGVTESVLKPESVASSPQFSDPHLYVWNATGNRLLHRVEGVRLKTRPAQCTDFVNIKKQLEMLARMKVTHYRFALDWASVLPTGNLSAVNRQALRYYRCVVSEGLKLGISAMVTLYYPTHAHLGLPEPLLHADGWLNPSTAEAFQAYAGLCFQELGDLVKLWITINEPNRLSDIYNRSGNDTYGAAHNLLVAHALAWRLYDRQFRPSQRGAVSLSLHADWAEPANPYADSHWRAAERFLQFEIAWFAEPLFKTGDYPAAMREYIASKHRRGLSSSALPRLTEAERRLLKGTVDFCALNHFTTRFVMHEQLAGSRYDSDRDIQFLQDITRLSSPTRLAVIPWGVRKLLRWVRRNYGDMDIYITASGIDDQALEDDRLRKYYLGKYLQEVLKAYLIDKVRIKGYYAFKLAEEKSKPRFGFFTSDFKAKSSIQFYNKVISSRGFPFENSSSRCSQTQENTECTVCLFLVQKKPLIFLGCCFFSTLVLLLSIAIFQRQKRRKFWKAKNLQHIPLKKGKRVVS
UniProt O95750, residues 25-216: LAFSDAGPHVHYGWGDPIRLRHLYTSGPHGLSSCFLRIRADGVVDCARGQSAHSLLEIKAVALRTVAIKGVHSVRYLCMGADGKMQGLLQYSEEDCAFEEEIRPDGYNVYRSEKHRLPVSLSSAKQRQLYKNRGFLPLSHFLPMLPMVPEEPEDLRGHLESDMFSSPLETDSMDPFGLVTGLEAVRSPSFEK

binding [1]: binds
binding [2]: binds
Substance: FGF19 (from UniProt O95750 25-216) (ligand)
